Some of the results follow.

The test concerns the target T1, OsSMF1 (Oryza sativa, UniProt Q6ZLB0 1-436).
T1 sequence: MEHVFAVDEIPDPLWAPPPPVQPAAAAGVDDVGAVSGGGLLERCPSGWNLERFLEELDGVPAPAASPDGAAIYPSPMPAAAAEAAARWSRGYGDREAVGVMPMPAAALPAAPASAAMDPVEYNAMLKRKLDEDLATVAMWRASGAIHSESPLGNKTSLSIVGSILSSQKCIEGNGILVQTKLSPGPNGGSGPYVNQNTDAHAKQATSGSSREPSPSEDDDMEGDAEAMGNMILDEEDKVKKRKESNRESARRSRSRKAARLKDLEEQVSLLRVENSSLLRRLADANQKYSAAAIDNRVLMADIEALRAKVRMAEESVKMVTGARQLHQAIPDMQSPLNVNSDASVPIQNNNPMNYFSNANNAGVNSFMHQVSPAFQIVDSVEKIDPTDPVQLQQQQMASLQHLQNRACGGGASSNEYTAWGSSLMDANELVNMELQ
Briefly: protein-binding microarray (RPBM); PBS, 2% BSA, 51.3 ng/ul salmon testes DNA, 50 uM zinc acetate, 200 nM TF, 25 C, 1 h; high values mean tight binding. The following applies: protein: recombinant; tags: N-terminal polyhistidine and DsRed monomer fusion (pET32a); chain copies: 2; label: CyDye5-dUTP incorporated in the synthesized complementary strand; 3' TTTTT single-stranded linker to array surface; dsDNA, one strand shown. The procedure, abridged: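 Binding signal here means per-feature fluorescence intensity in arbitrary units. The values were read on an Axon 4000B scanner after a custom Agilent array, double-stranded by primer extension with Cy5-dUTP, was incubated with 200 nM protein at 25 °C for 1 h in PBS with 2% BSA, salmon testes DNA and 50 µM zinc acetate, then washed. The proteins were transcription factors with an N-terminal polyhistidine tag and DsRed, expressed in E. coli BL21-CodonPlus and purified on Ni–NTA.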
“AGTATTGGGGAAATCTTGATGGGCGCACGCACGCACGGCCCGGAGTCACCTAGTGCAG”: the binding signal was 3430 fluorescence intensity (a.u.). Then “ACCGTCCTCGCCTTCTCCCGTGTTGCAGCCGTCATTGCTGCGGAGTCACCTAGTGCAG”, with 3810 fluorescence intensity (a.u.).

“TGTATATGTTTGTATGTCCTAATCATTGTTTTCGGATCCACGGAGTCACCTAGTGCAG”: the binding signal was 3750 fluorescence intensity (a.u.).

On to “GTTTAAAAGATTCGTCTTGCAATTTACACGTAAACTATGTCGGAGTCACCTAGTGCAG”, for which the binding signal was 4830 fluorescence intensity (a.u.). Then “GCAGCAGCGTTGGTGGTGGTGGTGTGTCATCACCAACATTCGGAGTCACCTAGTGCAG”, with 7760 fluorescence intensity (a.u.); and “CGACCGACATATCTTCATAATTACCAAGTCATCATGCGACCGGAGTCACCTAGTGCAG”, with 4520 fluorescence intensity (a.u.); and “AACTCCACCCCTCTCTATTCTAGACCGGATCTAGATGCTCCGGAGTCACCTAGTGCAG”, with 16000 fluorescence intensity (a.u.).

Consider “CGCCGCCCAACGTCAGCGCCACCTCATGCCACTGACGTCACGGAGTCACCTAGTGCAG”, for which the binding signal is 13800 fluorescence intensity (a.u.). In the case of “CATCACTAGGGCCATTTTCGGTGAAATGACTCTATGGGAGCGGAGTCACCTAGTGCAG”, the binding signal was 3470 fluorescence intensity (a.u.). Regarding “TCTGCATTTTGTACACATTACATATGATGATTATTTGGATCGGAGTCACCTAGTGCAG”, the binding signal was 3220 fluorescence intensity (a.u.). Then “TCCCGACGACCCGCCGGCCGCGCGCATGCGTCATCACCCACGGAGTCACCTAGTGCAG”, with 18300 fluorescence intensity (a.u.). Then “CTGCTACTGCTCGCTAGCTGGCTGCTCCAACGGTGGATGGCGGAGTCACCTAGTGCAG”, with 3260 fluorescence intensity (a.u.); and “TGCATATATGCATCATCGCAACGGTGTATATTTGTGGTGTCGGAGTCACCTAGTGCAG”, with 4630 fluorescence intensity (a.u.); and “AATTCTATTGTATGAGTTGTCTGCACGTCATCGAAATATGCGGAGTCACCTAGTGCAG”, with 10900 fluorescence intensity (a.u.).

As for “CAACCCGGGAGGCGAGGCGACCGTCACCAAGGCCAGCCGTCGGAGTCACCTAGTGCAG”, the binding signal is 3320 fluorescence intensity (a.u.).

Turning to “TGCGGCAAGGACTCCGCTGCCTGCTCACCACCATCACGCACGGAGTCACCTAGTGCAG”, the binding signal was 3190 fluorescence intensity (a.u.). Then “GCCCAAATATTGAGTTGGGCCCATAATTTTCGGCCCACATCGGAGTCACCTAGTGCAG”, with 15600 fluorescence intensity (a.u.). Consider “CCAGTGACTCGTCCGCCTCCACACATTACAGCTACCACGCCGGAGTCACCTAGTGCAG”, for which the binding signal was 4040 fluorescence intensity (a.u.). On to “ATCCGTACTCCCGTATATGTGGCAACATCTCCATCGTTTTCGGAGTCACCTAGTGCAG”, for which the binding signal is 4500 fluorescence intensity (a.u.).

On to “CTTTGTTACCTAACTACAGTTGTTATATCGTGACACATTTCGGAGTCACCTAGTGCAG”, for which the binding signal was 5480 fluorescence intensity (a.u.). Then “TTGTGGCATCGCATGGCGTTGGCGTCACCACCCCGCTCTCCGGAGTCACCTAGTGCAG”, with 4900 fluorescence intensity (a.u.). Then “GAGTCCGAGACCGACGCTGACACCGTCCTGCAGCAACCACCGGAGTCACCTAGTGCAG”, with 3540 fluorescence intensity (a.u.); and “TTATCTTCTCTCTCTTCCACATCATATAAAAGCTGATATGCGGAGTCACCTAGTGCAG”, with 4270 fluorescence intensity (a.u.); and “CGCGCCGTGGTGAGCGCGTGCGTGGCGTGTGGTGCAGGTGCGGAGTCACCTAGTGCAG”, with 3440 fluorescence intensity (a.u.).

Consider “CCCTTAGTCTGCAGGTTCCAGAAATGAAGTTTCATGCAGACGGAGTCACCTAGTGCAG”, for which the binding signal was 8040 fluorescence intensity (a.u.). Then “CACACACCTCACCACACGCCACGTTGATGCCTCGATAGAACGGAGTCACCTAGTGCAG”, with 3680 fluorescence intensity (a.u.); and “GAATTCCTATAGCATAGAATGTACACAGGGTGTACCCATTCGGAGTCACCTAGTGCAG”, with 3210 fluorescence intensity (a.u.). Then “CAATGGCCATGAAGAATGTTCGTTGCTGCCACGTTCTGGCCGGAGTCACCTAGTGCAG”, with 4230 fluorescence intensity (a.u.); and “TATATATATATATATATATATATAATGTTTCATCACCTGTCGGAGTCACCTAGTGCAG”, with 3810 fluorescence intensity (a.u.). For “ACGCGCGTTTTGTCAACACGTAGGCGAATATACTAGCCGGCGGAGTCACCTAGTGCAG”, the binding signal is 4880 fluorescence intensity (a.u.). Then “TGCACCCACGTGGCCACGTGTATGTAACGTTAGTGGTGACCGGAGTCACCTAGTGCAG”, with 14900 fluorescence intensity (a.u.). Then “AAAACCTGACTTTGCATCATTAGACGATTTGTCCATTGAACGGAGTCACCTAGTGCAG”, with 3160 fluorescence intensity (a.u.).

As to “TTAATGGTGAGTGAGTTTGATGGCTACGTATGTGTGCTATCGGAGTCACCTAGTGCAG”, the binding signal is 3170 fluorescence intensity (a.u.). Consider “AAACACTCGATGACATGTGGGTCCCACCTTTTGATTTAATCGGAGTCACCTAGTGCAG”, for which the binding signal is 3230 fluorescence intensity (a.u.).

In the case of “GTTCATTATTGCCGTTTACTAATACCATGTCCACACGGCCCGGAGTCACCTAGTGCAG”, the binding signal is 10700 fluorescence intensity (a.u.). Turning to “GGGCCCGCAATTCAATCGATTTGTTGGTCAGCCCATACTGCGGAGTCACCTAGTGCAG”, the binding signal was 3210 fluorescence intensity (a.u.).

Consider “CCGACAACACCGAGATCTTCGAGGATGGTGGACGTCACCCCGGAGTCACCTAGTGCAG”, for which the binding signal was 3570 fluorescence intensity (a.u.). For “TGCTGCGAAAGATGCACATCTTTGCATCACCAAGCAGCTCCGGAGTCACCTAGTGCAG”, the binding signal was 3500 fluorescence intensity (a.u.). Then “GAGAAGATGTATTAACATGTGATATATCGCTCCACAAACACGGAGTCACCTAGTGCAG”, with 3320 fluorescence intensity (a.u.). Then “TAGAAAACGCAACAACTAGCGCACCACGATACACGTGCATCGGAGTCACCTAGTGCAG”, with 3860 fluorescence intensity (a.u.). As to “TTGTTACTCCATATCTTTTGCACAGTCATACTGCAAGAATCGGAGTCACCTAGTGCAG”, the binding signal is 5350 fluorescence intensity (a.u.).

Consider “CTAGTATTAGCACCGAATAATGTGTCACTAATTAGAGTAGCGGAGTCACCTAGTGCAG”, for which the binding signal is 4640 fluorescence intensity (a.u.).

These data come from article PMC7819943, “Rice protein-binding microarrays: a tool to detect cis-acting elements near promoter regions in rice”.
